PubChem BioAssay AID1259308, NCATS | 2017
This is an unselected part of about 59,000 deposited reagents. Over the whole deposit, about 1,510 (2.6%) got an active call. 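Calls use total luciferase alone and ignore viability, so some active siRNAs may act by altering cell number.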 Reagents against one gene are numbered here. Further read-outs or replicates are left out here.

- Assay: 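Candidate targets for better recombinant protein yield in mammalian cells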 (primary screen)
- Cells: human HEK293 embryonic kidney cells stably expressing firefly luciferase (HEK-CMV-Luc2-Hygro)
- Reagent: single siRNA against human genes, 0.8 pmol siRNA per well
- Time to read-out: 72 h
- Detection: 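Reporter luminescence and viable-cell signal on separate replicate plates, given as percent of non-targeting control and median/MAD z-scores, plus per-cell luciferase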
- Direction: total luciferase, z-score: higher = more reporter protein produced
- Rule for the call: 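An siRNA counts as active if its total luciferase robust z-score exceeds 3; genes with two or more such siRNAs out of three were retested with fresh siRNAs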
- Calls: active = raised luciferase; inactive = no rise

PTPRM (protein tyrosine phosphatase receptor type M) #1: total luciferase, z-score = -1.7; activity call = inactive
PTPRM (protein tyrosine phosphatase receptor type M) #2: total luciferase, z-score = 0.191; activity call = inactive
PTPRM (protein tyrosine phosphatase receptor type M) #3: total luciferase, z-score = 0.382; activity call = inactive
FBLIM1 (filamin binding LIM protein 1) #1: total luciferase, z-score = -1.26; activity call = inactive
FBLIM1 (filamin binding LIM protein 1) #2: total luciferase, z-score = 0.595; activity call = inactive
FBLIM1 (filamin binding LIM protein 1) #3: total luciferase, z-score = 2.28; activity call = inactive
GPR173 (G protein-coupled receptor 173) #1: total luciferase, z-score = -1.04; activity call = inactive
GPR173 (G protein-coupled receptor 173) #2: total luciferase, z-score = -0.436; activity call = inactive
GPR173 (G protein-coupled receptor 173) #3: total luciferase, z-score = 1.48; activity call = inactive
CDKN1A (cyclin dependent kinase inhibitor 1A) #1: total luciferase, z-score = -0.218; activity call = inactive
CDKN1A (cyclin dependent kinase inhibitor 1A) #2: total luciferase, z-score = 0.943; activity call = inactive
CDKN1A (cyclin dependent kinase inhibitor 1A) #3: total luciferase, z-score = -0.0967; activity call = inactive
COQ10A (coenzyme Q10A) #1: total luciferase, z-score = 0.762; activity call = inactive
COQ10A (coenzyme Q10A) #2: total luciferase, z-score = 0.374; activity call = inactive
COQ10A (coenzyme Q10A) #3: total luciferase, z-score = -0.367; activity call = inactive
CSF2RB (colony stimulating factor 2 receptor subunit beta) #1: total luciferase, z-score = 2.89; activity call = inactive
CSF2RB (colony stimulating factor 2 receptor subunit beta) #2: total luciferase, z-score = 0.376; activity call = inactive
CSF2RB (colony stimulating factor 2 receptor subunit beta) #3: total luciferase, z-score = 0.254; activity call = inactive
CCL21 (C-C motif chemokine ligand 21) #1: total luciferase, z-score = 3.04; activity call = active
CCL21 (C-C motif chemokine ligand 21) #2: total luciferase, z-score = 1.19; activity call = inactive
CCL21 (C-C motif chemokine ligand 21) #3: total luciferase, z-score = 1.06; activity call = inactive
S100A9 (S100 calcium binding protein A9) #1: total luciferase, z-score = -0.312; activity call = inactive
S100A9 (S100 calcium binding protein A9) #2: total luciferase, z-score = -0.474; activity call = inactive
S100A9 (S100 calcium binding protein A9) #3: total luciferase, z-score = 0.443; activity call = inactive
USP54 (ubiquitin specific peptidase 54) #1: total luciferase, z-score = -0.489; activity call = inactive
USP54 (ubiquitin specific peptidase 54) #2: total luciferase, z-score = 0.0767; activity call = inactive
USP54 (ubiquitin specific peptidase 54) #3: total luciferase, z-score = -0.471; activity call = inactive
IFI44L (interferon induced protein 44 like) #1: total luciferase, z-score = -0.0923; activity call = inactive
IFI44L (interferon induced protein 44 like) #2: total luciferase, z-score = 0.145; activity call = inactive
IFI44L (interferon induced protein 44 like) #3: total luciferase, z-score = 0.216; activity call = inactive
ACE (angiotensin I converting enzyme) #1: total luciferase, z-score = 2.33; activity call = inactive
ACE (angiotensin I converting enzyme) #2: total luciferase, z-score = -1.19; activity call = inactive
ACE (angiotensin I converting enzyme) #3: total luciferase, z-score = 1.19; activity call = inactive
